Data on 1 substance can be found in publication PMC8453168.

In the experiment the target is T1, FLAG-HA-PTPRN (tyrosine phosphatase receptor type N), expressed in 293T cells (human) (UniProt Q16849).
T1 sequence: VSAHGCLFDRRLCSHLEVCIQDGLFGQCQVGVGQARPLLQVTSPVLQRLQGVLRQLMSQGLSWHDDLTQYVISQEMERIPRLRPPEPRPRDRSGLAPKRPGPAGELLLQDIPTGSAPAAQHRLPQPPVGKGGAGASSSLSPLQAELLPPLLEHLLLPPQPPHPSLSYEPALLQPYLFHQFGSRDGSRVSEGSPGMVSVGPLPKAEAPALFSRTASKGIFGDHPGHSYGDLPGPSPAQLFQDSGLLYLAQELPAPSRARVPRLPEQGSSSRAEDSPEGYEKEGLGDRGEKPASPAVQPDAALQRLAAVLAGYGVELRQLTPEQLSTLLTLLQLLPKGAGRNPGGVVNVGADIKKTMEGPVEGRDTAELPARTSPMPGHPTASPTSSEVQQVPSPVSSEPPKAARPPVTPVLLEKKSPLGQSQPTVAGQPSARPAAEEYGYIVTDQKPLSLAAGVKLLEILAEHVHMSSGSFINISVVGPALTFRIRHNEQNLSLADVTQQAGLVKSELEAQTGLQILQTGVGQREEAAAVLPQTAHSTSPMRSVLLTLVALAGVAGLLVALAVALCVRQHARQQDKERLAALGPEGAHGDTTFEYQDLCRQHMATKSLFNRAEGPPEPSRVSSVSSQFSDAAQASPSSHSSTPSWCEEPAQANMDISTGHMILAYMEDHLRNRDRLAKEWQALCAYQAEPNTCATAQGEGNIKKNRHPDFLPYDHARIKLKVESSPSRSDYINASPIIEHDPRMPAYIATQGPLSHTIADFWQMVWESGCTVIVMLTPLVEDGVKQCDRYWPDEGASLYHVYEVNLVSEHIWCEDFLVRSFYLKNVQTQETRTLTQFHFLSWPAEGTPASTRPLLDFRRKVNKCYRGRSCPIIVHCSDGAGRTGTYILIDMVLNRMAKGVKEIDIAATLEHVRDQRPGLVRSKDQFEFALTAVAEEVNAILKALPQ
Kind of experiment: affinity purification with mass spectrometry; anti-FLAG precipitation from lysate of FLAG-HA-PTPRN-expressing 293T cells (20 mM Tris-HCl pH 8, 137 mM NaCl, 0.5% Triton X-100, 2 mM EDTA, 4°C), agarose slurry, LC-MS/MS.

Results are given in words; binding and its absence hold for the method and conditions named. Binding seen in cells or lysates may run through a third protein. These calls come from enrichment with a bait or labelling near it, and not all partners need be listed. Sequences can lack the tags named with a protein.

On to “Heat shock protein 90 alpha family class A member 1 (HSP90AA1), endogenous in 293T cells (from UniProt P07900 1-732)”, for which the binding entry is “binds”.
